Assay results from publication doi:10.1101/2021.10.22.465432 (bioRxiv, 2021).
These are yes or no findings as the source states them, for the method shown. In cells and extracts the contact can be indirect. Some binding calls cover weakened binding; strength is not graded here.

Amino acid sequences for entries named in this document (tags omitted). A change or cut given only in a name is not applied to a line headed by its entry.
UniProt D3YXK2, whole entry: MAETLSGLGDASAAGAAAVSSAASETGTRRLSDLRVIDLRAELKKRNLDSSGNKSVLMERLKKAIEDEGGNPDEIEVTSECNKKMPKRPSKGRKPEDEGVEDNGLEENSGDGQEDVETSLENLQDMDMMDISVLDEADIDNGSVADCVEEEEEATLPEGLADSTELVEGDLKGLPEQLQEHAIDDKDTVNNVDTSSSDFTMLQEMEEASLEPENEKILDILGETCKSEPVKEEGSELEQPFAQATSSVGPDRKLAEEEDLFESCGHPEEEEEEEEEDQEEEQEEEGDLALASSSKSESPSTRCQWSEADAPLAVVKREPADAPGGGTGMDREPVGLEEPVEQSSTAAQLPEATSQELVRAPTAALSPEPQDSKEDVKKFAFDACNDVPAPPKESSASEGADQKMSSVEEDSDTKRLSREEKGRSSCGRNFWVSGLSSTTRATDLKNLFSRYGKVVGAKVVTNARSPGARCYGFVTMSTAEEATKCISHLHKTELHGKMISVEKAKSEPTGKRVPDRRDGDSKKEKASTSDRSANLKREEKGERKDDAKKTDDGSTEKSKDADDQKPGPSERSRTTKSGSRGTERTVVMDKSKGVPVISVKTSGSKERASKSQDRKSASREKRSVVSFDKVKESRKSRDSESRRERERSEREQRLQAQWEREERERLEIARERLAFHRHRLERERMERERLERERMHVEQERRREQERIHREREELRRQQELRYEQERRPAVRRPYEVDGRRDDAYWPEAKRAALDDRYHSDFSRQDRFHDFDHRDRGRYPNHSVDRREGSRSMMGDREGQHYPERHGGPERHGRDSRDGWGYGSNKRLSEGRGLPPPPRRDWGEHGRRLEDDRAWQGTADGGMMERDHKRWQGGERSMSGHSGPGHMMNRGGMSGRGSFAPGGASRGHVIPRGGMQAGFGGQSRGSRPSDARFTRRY

T1: Drosha (mouse (endogenous in DG NSCs)) (UniProt Q5HZJ0)
T1 sequence: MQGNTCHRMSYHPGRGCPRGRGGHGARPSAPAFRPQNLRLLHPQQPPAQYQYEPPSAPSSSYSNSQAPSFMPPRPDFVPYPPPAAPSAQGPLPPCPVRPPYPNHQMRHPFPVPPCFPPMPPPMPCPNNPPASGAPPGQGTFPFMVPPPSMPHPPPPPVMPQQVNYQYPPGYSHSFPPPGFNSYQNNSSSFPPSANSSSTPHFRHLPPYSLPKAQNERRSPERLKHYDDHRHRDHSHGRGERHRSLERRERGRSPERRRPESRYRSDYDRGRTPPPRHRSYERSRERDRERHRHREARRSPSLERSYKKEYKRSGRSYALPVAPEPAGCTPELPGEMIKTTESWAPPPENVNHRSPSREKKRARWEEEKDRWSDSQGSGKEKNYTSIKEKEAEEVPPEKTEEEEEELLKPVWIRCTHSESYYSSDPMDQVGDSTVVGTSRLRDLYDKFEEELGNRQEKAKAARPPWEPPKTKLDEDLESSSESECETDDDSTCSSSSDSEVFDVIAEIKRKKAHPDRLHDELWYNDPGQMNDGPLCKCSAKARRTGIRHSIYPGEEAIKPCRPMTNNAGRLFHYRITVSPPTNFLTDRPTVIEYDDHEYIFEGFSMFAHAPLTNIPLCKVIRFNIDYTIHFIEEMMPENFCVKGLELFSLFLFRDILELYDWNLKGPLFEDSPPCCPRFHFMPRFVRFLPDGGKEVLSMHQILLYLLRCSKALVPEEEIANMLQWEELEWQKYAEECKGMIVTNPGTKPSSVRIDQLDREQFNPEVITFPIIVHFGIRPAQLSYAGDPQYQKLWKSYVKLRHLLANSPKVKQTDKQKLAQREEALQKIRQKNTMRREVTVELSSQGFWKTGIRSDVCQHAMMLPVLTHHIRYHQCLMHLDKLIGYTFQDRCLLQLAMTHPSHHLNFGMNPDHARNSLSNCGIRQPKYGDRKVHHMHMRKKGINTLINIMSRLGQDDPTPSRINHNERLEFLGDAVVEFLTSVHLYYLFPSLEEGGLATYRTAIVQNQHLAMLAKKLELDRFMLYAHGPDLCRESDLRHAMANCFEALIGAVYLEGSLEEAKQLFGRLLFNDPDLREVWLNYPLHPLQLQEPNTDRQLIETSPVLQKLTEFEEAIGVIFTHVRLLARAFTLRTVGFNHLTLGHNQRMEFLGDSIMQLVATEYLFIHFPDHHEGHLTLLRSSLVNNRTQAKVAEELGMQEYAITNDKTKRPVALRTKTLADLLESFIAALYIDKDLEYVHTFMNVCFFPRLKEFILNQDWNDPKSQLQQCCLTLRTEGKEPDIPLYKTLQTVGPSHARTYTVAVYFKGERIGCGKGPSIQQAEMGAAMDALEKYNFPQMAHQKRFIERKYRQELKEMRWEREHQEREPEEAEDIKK

T2: Drosha (mouse (endogenous in N2A)) (UniProt Q5HZJ0)
T2 sequence: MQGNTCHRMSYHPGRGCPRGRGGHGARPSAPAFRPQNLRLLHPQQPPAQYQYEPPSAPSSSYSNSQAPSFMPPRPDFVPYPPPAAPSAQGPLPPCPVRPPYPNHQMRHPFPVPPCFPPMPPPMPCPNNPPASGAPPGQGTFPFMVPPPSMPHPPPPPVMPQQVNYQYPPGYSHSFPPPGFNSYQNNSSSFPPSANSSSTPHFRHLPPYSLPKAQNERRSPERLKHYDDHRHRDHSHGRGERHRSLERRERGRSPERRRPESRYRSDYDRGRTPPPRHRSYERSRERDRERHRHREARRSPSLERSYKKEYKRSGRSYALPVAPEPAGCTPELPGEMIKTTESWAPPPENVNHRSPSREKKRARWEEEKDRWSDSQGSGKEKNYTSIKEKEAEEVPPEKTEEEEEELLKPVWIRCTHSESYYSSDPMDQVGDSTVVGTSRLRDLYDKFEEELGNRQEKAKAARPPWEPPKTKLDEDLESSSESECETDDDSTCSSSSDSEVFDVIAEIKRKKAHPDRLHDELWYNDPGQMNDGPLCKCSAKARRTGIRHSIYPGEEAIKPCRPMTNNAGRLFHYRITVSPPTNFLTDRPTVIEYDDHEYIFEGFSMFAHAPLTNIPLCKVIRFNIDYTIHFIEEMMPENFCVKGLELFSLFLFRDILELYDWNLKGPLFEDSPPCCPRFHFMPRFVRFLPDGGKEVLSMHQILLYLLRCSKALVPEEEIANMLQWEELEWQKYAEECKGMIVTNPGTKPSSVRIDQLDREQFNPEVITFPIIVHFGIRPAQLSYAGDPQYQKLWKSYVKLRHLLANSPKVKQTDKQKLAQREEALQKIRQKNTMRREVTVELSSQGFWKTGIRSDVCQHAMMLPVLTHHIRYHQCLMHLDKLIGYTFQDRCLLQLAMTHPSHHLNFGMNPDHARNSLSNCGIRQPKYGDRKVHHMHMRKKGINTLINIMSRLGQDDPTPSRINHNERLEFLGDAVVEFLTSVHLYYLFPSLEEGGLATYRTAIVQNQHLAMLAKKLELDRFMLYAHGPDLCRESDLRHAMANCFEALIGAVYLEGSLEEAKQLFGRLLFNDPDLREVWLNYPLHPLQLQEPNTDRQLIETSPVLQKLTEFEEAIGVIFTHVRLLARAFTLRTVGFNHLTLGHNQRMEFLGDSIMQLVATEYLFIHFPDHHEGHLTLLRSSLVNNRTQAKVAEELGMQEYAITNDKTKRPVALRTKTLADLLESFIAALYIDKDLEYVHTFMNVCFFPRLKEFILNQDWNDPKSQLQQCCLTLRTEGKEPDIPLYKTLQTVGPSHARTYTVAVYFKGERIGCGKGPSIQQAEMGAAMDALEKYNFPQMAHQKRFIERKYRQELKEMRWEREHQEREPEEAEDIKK


Assays:
Experiment in all cases: co-IP
[1] = target: T1, Drosha (mouse (endogenous in DG NSCs))
[2] = target: Scaffold Attachment Factor B1 (Safb1) (mouse (endogenous in DG NSCs)) (UniProt D3YXK2)
[3] = target: T2, Drosha (mouse (endogenous in N2A))

| binding [1] | binding [2] | binding [3] | Molecule |
| --- | --- | --- | --- |
| no binding | no binding |  | PKC-α (from UniProt P20444 1-672) (enzyme) |
|  |  | binds | Safb1 (from UniProt D3YXK2 1-937) |
| binds |  |  | Scaffold Attachment Factor B1 (Safb1) (from UniProt D3YXK2 1-937) |

Continued, molecule first:

| Molecule | binding [1] | binding [2] | binding [3] |
| --- | --- | --- | --- |
| Safb1-HA (from UniProt D3YXK2 1-937) |  |  | binds |
| Drosha (enzyme, UniProt Q5HZJ0 1-1373) MQGNTCHRMSYHPGRGCPRGRGGHGARPSAPAFRPQNLRLLHPQQPPAQYQYEPPSAPSSSYSNSQAPSFMPPRPDFVPYPPPAAPSAQGPLPPCPVRPPYPNHQMRHPFPVPPCFPPMPPPMPCPNNPPASGAPPGQGTFPFMVPPPSMPHPPPPPVMPQQVNYQYPPGYSHSFPPPGFNSYQNNSSSFPPSANSSSTPHFRHLPPYSLPKAQNERRSPERLKHYDDHRHRDHSHGRGERHRSLERRERGRSPERRRPESRYRSDYDRGRTPPPRHRSYERSRERDRERHRHREARRSPSLERSYKKEYKRSGRSYALPVAPEPAGCTPELPGEMIKTTESWAPPPENVNHRSPSREKKRARWEEEKDRWSDSQGSGKEKNYTSIKEKEAEEVPPEKTEEEEEELLKPVWIRCTHSESYYSSDPMDQVGDSTVVGTSRLRDLYDKFEEELGNRQEKAKAARPPWEPPKTKLDEDLESSSESECETDDDSTCSSSSDSEVFDVIAEIKRKKAHPDRLHDELWYNDPGQMNDGPLCKCSAKARRTGIRHSIYPGEEAIKPCRPMTNNAGRLFHYRITVSPPTNFLTDRPTVIEYDDHEYIFEGFSMFAHAPLTNIPLCKVIRFNIDYTIHFIEEMMPENFCVKGLELFSLFLFRDILELYDWNLKGPLFEDSPPCCPRFHFMPRFVRFLPDGGKEVLSMHQILLYLLRCSKALVPEEEIANMLQWEELEWQKYAEECKGMIVTNPGTKPSSVRIDQLDREQFNPEVITFPIIVHFGIRPAQLSYAGDPQYQKLWKSYVKLRHLLANSPKVKQTDKQKLAQREEALQKIRQKNTMRREVTVELSSQGFWKTGIRSDVCQHAMMLPVLTHHIRYHQCLMHLDKLIGYTFQDRCLLQLAMTHPSHHLNFGMNPDHARNSLSNCGIRQPKYGDRKVHHMHMRKKGINTLINIMSRLGQDDPTPSRINHNERLEFLGDAVVEFLTSVHLYYLFPSLEEGGLATYRTAIVQNQHLAMLAKKLELDRFMLYAHGPDLCRESDLRHAMANCFEALIGAVYLEGSLEEAKQLFGRLLFNDPDLREVWLNYPLHPLQLQEPNTDRQLIETSPVLQKLTEFEEAIGVIFTHVRLLARAFTLRTVGFNHLTLGHNQRMEFLGDSIMQLVATEYLFIHFPDHHEGHLTLLRSSLVNNRTQAKVAEELGMQEYAITNDKTKRPVALRTKTLADLLESFIAALYIDKDLEYVHTFMNVCFFPRLKEFILNQDWNDPKSQLQQCCLTLRTEGKEPDIPLYKTLQTVGPSHARTYTVAVYFKGERIGCGKGPSIQQAEMGAAMDALEKYNFPQMAHQKRFIERKYRQELKEMRWEREHQEREPEEAEDIKK |  | binds |  |
